Measured values taken from PubChem BioAssay AID248 (DTP/NCI, 2004).
The list does not hold the whole screen: its compounds were picked by chemical class. Other doses and runs of a compound may be missing. T/C is the treated group as % of the vehicle group. Some doses have a count of surviving animals in place of a T/C: the source holds a T/C of zero for them, seemingly a mark for toxic or unscored doses. Some doses without a T/C left all or most animals alive at the check, yet need not have been tolerated: the source hardly ever lists a survival T/C far under the control, and the zero likely stands for such cases as well. Survivors were counted at the toxicity check, usually on the fifth day, unless a day is given; later deaths do not show. Schedule codes are those of the source, read here as Q, the interval in days (D) or hours (H), X, the number of doses. Some schedules carry Z or #; the key to these is not given. Some entries hold several experiments; the values are given in rising order. Some complexes appear as separate parts, the way the source draws them; their charges need not add up. Where survival is the endpoint, this PubChem deposit counts one and a half times the control or more as active, and values a quarter to a half above the control carry no call in these data; other NCI protocols may use other cut-offs. Some T/C values are marked as having no survivor count here; that says nothing about deaths at the dose. Some T/C values are followed by the survivors on the day toxicity was checked, most often the fifth; where neither a count nor a note follows, no animal had died by that day.

System: L1210 leukemia ip in BDF1 mice, survival T/C
Experiment: NCI In Vivo Anticancer Drug Screen. Data for tumor model L1210 Leukemia (intraperitoneal) in B6D2F1 (BDF1) mice
Conditions: T/C endpoint: mean survival time, higher T/C = longer survival
[1] = dose: 15.0 mg/kg/injection, schedule: Q01DX001 (ip), vehicle: saline
[2] = dose: 30.0 mg/kg/injection, schedule: Q01DX001 (ip), vehicle: saline
[3] = dose: 100.0 mg/kg/injection, schedule: Q01DX009 (ip), vehicle: saline with Tween-80
[4] = dose: 200.0 mg/kg/injection, schedule: Q01DX009 (ip), vehicle: saline with Tween-80
[5] = dose: 100.0 mg/kg/injection, schedule: Q01DX001 (ip), vehicle: Klucel (hydroxypropylcellulose) (HPC)
[6] = dose: 200.0 mg/kg/injection, schedule: Q01DX001 (ip), vehicle: Klucel (hydroxypropylcellulose) (HPC)
[7] = dose: 100.0 mg/kg/injection, schedule: Q04DX003 (ip), vehicle: Klucel (hydroxypropylcellulose) (HPC)
[8] = dose: 200.0 mg/kg/injection, schedule: Q04DX003 (ip), vehicle: Klucel (hydroxypropylcellulose) (HPC)
[9] = dose: 400.0 mg/kg/injection, schedule: Q04DX003 (ip), vehicle: Klucel (hydroxypropylcellulose) (HPC)
[10] = dose: 100.0 mg/kg/injection, schedule: Q04DX003 (ip), vehicle: saline with Tween-80
[11] = dose: 200.0 mg/kg/injection, schedule: Q04DX003 (ip), vehicle: saline with Tween-80
[12] = dose: 400.0 mg/kg/injection, schedule: Q04DX003 (ip), vehicle: saline with Tween-80
[13] = dose: 100.0 mg/kg/injection, schedule: Q01DX001 (ip), vehicle: saline
[14] = dose: 200.0 mg/kg/injection, schedule: Q01DX001 (ip), vehicle: saline

`O=C(NCCF)N[N+](=O)[O-]` was tested, and the T/C (dose: 7.5 mg/kg/injection, schedule: Q01DX001 (ip), vehicle: saline) was 120 % of control, the T/C [1] was 111 % of control and the T/C [2] was 108 % of control. For the same molecule, the T/C (dose: 62.0 mg/kg/injection, schedule: Q01DX001 (ip), vehicle: saline) was 97 % of control, the T/C (dose: 125.0 mg/kg/injection, schedule: Q01DX001 (ip), vehicle: saline) was 108 % of control and the T/C (dose: 250.0 mg/kg/injection, schedule: Q01DX001 (ip), vehicle: saline) was 103 % of control. For the same molecule, the T/C (dose: 375.0 mg/kg/injection, schedule: Q01DX001 (ip), vehicle: saline) was 103 % of control and the survivor count (dose: 500.0 mg/kg/injection, schedule: Q01DX001 (ip), vehicle: saline) was 1 of 6.
With `C1CCC2(CC1)OOC1(CCCCC1)OO2` the T/C (dose: 50.0 mg/kg/injection, schedule: Q01DX009 (ip), vehicle: saline with Tween-80) was 91 % of control [survivor count not shown], the T/C [3] was 98 % of control [survivor count not shown] and the T/C [4] was 91 % of control [survivor count not shown].
With `CC#N.CC1[N-]CC[N-]CC[N-]CC[N-]C(C)C2CCCC1[N-]2.F[P-](F)(F)(F)(F)F.[Ni+2]` (centres undefined) the T/C (dose: 20.0 mg/kg/injection, schedule: Q01DX001 (ip), vehicle: Klucel (hydroxypropylcellulose) (HPC)) was 86 % of control, the T/C (dose: 40.0 mg/kg/injection, schedule: Q01DX001 (ip), vehicle: Klucel (hydroxypropylcellulose) (HPC)) was 95 % of control and the T/C [5] was 104 % of control. For the same molecule, the survivor count [6] was 0 of 3.
In the case of `O=[As](O)(c1ccccc1Br)c1ccccc1Br`, the T/C (dose: 75.0 mg/kg/injection, schedule: Q01DX001 (ip), vehicle: saline) is reported as 100 % of control, the T/C (dose: 150.0 mg/kg/injection, schedule: Q01DX001 (ip), vehicle: saline) is reported as 100 % of control [4 of 6 alive] and the survivor count (dose: 300.0 mg/kg/injection, schedule: Q01DX001 (ip), vehicle: saline) is reported as 3 of 6.
In the case of `COP(=O)(N(CCCl)CCCl)N1CC1` (centres undefined), the T/C (dose: 4.0 mg/kg/injection, schedule: Q01DX Z (ip), vehicle: saline) is reported as 111 % of control, the T/C (dose: 8.0 mg/kg/injection, schedule: Q01DX Z (ip), vehicle: saline) is reported as 144 % of control and the T/C (dose: 16.0 mg/kg/injection, schedule: Q01DX Z (ip), vehicle: saline) is reported as 114 % of control. For the same molecule, the survivor count (dose: 32.0 mg/kg/injection, schedule: Q01DX Z (ip), vehicle: saline) was 6 of 6, the survivor count (dose: 62.5 mg/kg/injection, schedule: Q01DX010 (ip), vehicle: saline) was 2 of 6 and the survivor count (dose: 64.0 mg/kg/injection, schedule: Q01DX Z (ip), vehicle: saline) was 2 of 6. For the same molecule, the survivor count (dose: 125.0 mg/kg/injection, schedule: Q01DX010 (ip), vehicle: saline) was 1 of 6 and the survivor count (dose: 250.0 mg/kg/injection, schedule: Q01DX010 (ip), vehicle: saline) was 0 of 6.
`Nc1nnc(N)nn1` was tested, and the T/C [5] was 101 % of control, the T/C [7] was 104 % of control and the T/C [6] was 108 % of control. The T/C [8] was 103 % of control, the T/C (dose: 400.0 mg/kg/injection, schedule: Q01DX001 (ip), vehicle: Klucel (hydroxypropylcellulose) (HPC)) was 112 % of control and the T/C [9] was 98 % of control.
For `C=CS(=O)(=O)C=C`, the survivor count [10] was 0 of 6, the survivor count [11] was 0 of 6 and the survivor count [12] was 0 of 6.
In the case of `C=CCC[P+](C)(c1ccccc1)c1ccccc1.F[P-](F)(F)(F)(F)F`, the T/C (dose: 0.78 mg/kg/injection, schedule: Q04DX003 (ip), vehicle: Klucel (hydroxypropylcellulose) (HPC)) is reported as 91 % of control, the T/C (dose: 1.56 mg/kg/injection, schedule: Q04DX003 (ip), vehicle: Klucel (hydroxypropylcellulose) (HPC)) is reported as 107 % of control and the T/C (dose: 3.12 mg/kg/injection, schedule: Q04DX003 (ip), vehicle: Klucel (hydroxypropylcellulose) (HPC)) is reported as 92 and 98 % of control. The survivor count (dose: 6.25 mg/kg/injection, schedule: Q04DX003 (ip), vehicle: Klucel (hydroxypropylcellulose) (HPC)) was 4 of 6, the survivor count (dose: 12.5 mg/kg/injection, schedule: Q04DX003 (ip), vehicle: Klucel (hydroxypropylcellulose) (HPC)) was 0 of 6 and the survivor count (dose: 25.0 mg/kg/injection, schedule: Q04DX003 (ip), vehicle: Klucel (hydroxypropylcellulose) (HPC)) was 0 of 6. For the same molecule, the survivor count (dose: 50.0 mg/kg/injection, schedule: Q04DX003 (ip), vehicle: Klucel (hydroxypropylcellulose) (HPC)) was 0 of 6 and 1 of 6, the survivor count [7] was 6 of 6 and the survivor count [8] was 6 of 6. For the same molecule, the survivor count [9] was 0 of 6.
In the case of `NP(=O)(N(CCCl)CCCl)N(CCCl)CCCl`, the T/C (dose: 100.0 mg/kg/injection, schedule: Q01DX001 (ip), vehicle: DMSO) is reported as 101 % of control, the T/C (dose: 200.0 mg/kg/injection, schedule: Q01DX001 (ip), vehicle: DMSO) is reported as 94 % of control [2 of 3 alive] and the survivor count (dose: 400.0 mg/kg/injection, schedule: Q01DX001 (ip), vehicle: DMSO) is reported as 0 of 3.
For `CCOP(=O)(CC)OC(=O)N(CC)CC` (centres undefined), the T/C (dose: 100.0 mg/kg/injection, schedule: Q04DX002 (ip), vehicle: saline) was 108 % of control [survivor count not shown], the T/C (dose: 200.0 mg/kg/injection, schedule: Q04DX002 (ip), vehicle: saline) was 97 % of control [survivor count not shown] and the T/C (dose: 400.0 mg/kg/injection, schedule: Q04DX002 (ip), vehicle: saline) was 104 % of control [survivor count not shown].
For `[N-]=[N+]=Nc1c([N+](=O)[O-])cc([N+](=O)[O-])cc1[N+](=O)[O-]`, the T/C (dose: 5.0 mg/kg/injection, schedule: Q01DX001 (ip), vehicle: saline) was 100 % of control [survivor count not shown], the T/C (dose: 10.0 mg/kg/injection, schedule: Q01DX001 (ip), vehicle: saline) was 102 % of control [survivor count not shown] and the T/C (dose: 20.0 mg/kg/injection, schedule: Q01DX001 (ip), vehicle: saline) was 96 % of control [survivor count not shown]. For the same molecule, the T/C (dose: 40.0 mg/kg/injection, schedule: Q01DX001 (ip), vehicle: saline) was 100 % of control [survivor count not shown] and the T/C (dose: 80.0 mg/kg/injection, schedule: Q01DX001 (ip), vehicle: saline) was 96 % of control [survivor count not shown].
For `CP(N)(Cl)(c1ccccc1)c1ccccc1`, the T/C [1] was 106 % of control, the T/C [2] was 111 % of control and the survivor count (dose: 60.0 mg/kg/injection, schedule: Q01DX001 (ip), vehicle: saline) was 0 of 6. For the same molecule, the survivor count [13] was 1 of 6, the survivor count [14] was 0 of 6 and the survivor count (dose: 400.0 mg/kg/injection, schedule: Q01DX001 (ip), vehicle: saline) was 1 of 6.
With `NC(N)=NCCN[N+](=O)[O-]` the T/C (dose: 50.0 mg/kg/injection, schedule: Q01DX001 (ip), vehicle: saline) was 100 % of control, the T/C [13] was 100 % of control and the T/C [14] was 105 % of control.
For `CCCCSC(C[N+](=O)[O-])C(Cl)(Cl)Cl` (centres undefined), the T/C [3] was 88 % of control, the T/C [10] was 98 % of control and the T/C [4] was 91 % of control. The T/C [11] was 98 % of control, the T/C (dose: 400.0 mg/kg/injection, schedule: Q01DX009 (ip), vehicle: saline with Tween-80) was 90 % of control and the T/C [12] was 101 % of control.
With `ClCCNNCc1ccc(Cl)cc1` the T/C (dose: 50.0 mg/kg/injection, schedule: Q04DX003 (ip), vehicle: saline) was 99 % of control, the T/C (dose: 100.0 mg/kg/injection, schedule: Q04DX003 (ip), vehicle: saline) was 99 % of control and the T/C (dose: 200.0 mg/kg/injection, schedule: Q04DX003 (ip), vehicle: saline) was 118 % of control [2 of 3 alive].
